Experimental data reported in PubChem BioAssay AID504467 (National Center for Advancing Translational Sciences (NCATS), 2011).
Hit rate of the full screen: of about 330,000 compounds, about 7,700 (2.3%) were called active. Inconclusive results, whose numbers are uncertain, are shown with a selection of clear calls. Calls follow the shape of the dose curve; as a rule, active = well fitted inhibition curve with a large enough effect; inconclusive = small, poorly fitted or top-dose-only effect, or effect the other way; inactive = flat fitted curve, though single readings scatter. A potency beside an inconclusive call is a rough fit, not a confirmed value.

assay: qHTS screen for small molecules that inhibit ELG1-dependent DNA repair in human embryonic kidney (HEK293T) cells expressing luciferase-tagged ELG1; details: HEK293T ELG1-luciferase reporter, luminescence, 16 h, DNA damage induced by 5-fluorouridine; activity change, negative = inhibition: at 46.1 µM (top of the series); also: nearly all actives have a fitted effect of over 55% in size
Outline: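 In this reporter screen, reduction of luminescence relative to DMSO vehicle indicated activity. Compounds and 5-fluorouridine were added together to 2,000 cells per well, incubated for 16 hr at 37 °C, then developed with ONE-Glo.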
% is scaled to controls: 0 for no effect and ±100 for the full control effect; potency is read from the fitted curve at half-maximal effect.

Compound	activity change, negative = inhibition	Potency
CCCCN(c1ccccc1)S(=O)(=O)c1cccc(C(=O)O)c1	inactive: -3.12%	–
CN1/C(=C/C(=O)c2ccc(Cl)cc2)Sc2cc3c(cc21)OCO3	–	inconclusive: 2.31 µM [activator, partial curve]
COc1ccc(NC(=O)Nc2c(C)n(C)n(-c3ccccc3)c2=O)cc1	–	inconclusive: 20.6 µM [activator, partial curve]
CCN(CC)CCNC(=O)c1cc2c(=O)n(C)c3ccccc3c2s1	–	inconclusive: 16.4 µM [activator, partial curve]
COC(=O)c1nnn(-c2nc(N(C)C)nc(N(C)C)n2)c1C	inactive: 12.1%	–
COc1ccc(CCNC(=O)C(=O)NCc2ccccc2)cc1OC	inactive: 15.1%	–
Cc1cc(C)n2nc(SCC(=O)N3CCc4ccccc43)nc2n1	–	inconclusive: 23.1 µM [activator, single point]
COc1ccc(/C=N/NC2=NCCCCC2)cc1	–	inconclusive: 20.6 µM [activator, single point]
CCOc1ccc(NC(=O)c2sc(N3CCOCC3)nc2-c2ccccc2)cc1	–	inconclusive: 25.9 µM [inhibitor, partial curve]
CCCNC(=O)N1CCN(S(C)(=O)=O)CC1	inactive: 2.46%	–
CCSc1nc(-c2ccccc2)cc(=O)[nH]1	–	inconclusive: 32.6 µM [activator, single point]
Cc1noc(C)c1C(=O)Nc1nc(C23CC4CC(CC(C4)C2)C3)cs1	–	inconclusive: 6.51 µM [inhibitor, single point]
Cc1ccc(C(=O)COC(=O)c2cc(=O)[nH]c3ccccc23)cc1C	–	inconclusive: 23.1 µM [activator, partial curve]
Cc1cc(Nc2cccc(Cl)c2)nc(N2CCOCC2)n1	–	inconclusive: 20.6 µM [inhibitor, single point]
Cc1cccc(C(=O)NC(=S)NNC(=O)Cc2ccccc2)c1	inactive: 5.54%	–
CCCCC1(c2ccc(F)cc2)NC(=O)N(CC(=O)Nc2ccc(N3CCOCC3)cc2)C1=O (stereo not drawn)	inactive: -23.5%	–
CC(C)Cc1ccc(CN2CCCC(NC(=O)CCN3CCCCC3=O)C2)cc1 (stereo not drawn)	inactive: 6.75%	–
Cc1noc(C)c1S(=O)(=O)N1CCCC(C(=O)NCc2ccccc2Cl)C1 (stereo not drawn)	inactive: 11.8%	–
CC(=O)NC(Cc1cccc(C)c1)C(=O)NC1CCN(C(=O)c2ccc([N+](=O)[O-])cc2)CC1 (stereo not drawn)	inactive: 6.75%	–
COc1ccc(C(=O)Nc2ccc(C(=O)N3CCOCC3)cc2)cc1OC	–	inconclusive: 23.1 µM [activator, single point]
COc1ccc(N2CCN(C(=O)COc3ccc(Cl)cc3Cl)CC2)cc1	–	inconclusive: 29.1 µM [inhibitor, single point]
COc1ccc(-c2nc3ccccc3c(=O)[nH]2)cc1	–	inconclusive: 11.2 µM [activator, partial curve, poor fit]
CC(C)(C)OC(=O)NC(CCCCNC=O)C(=O)O (stereo not drawn)	–	inconclusive: 29.1 µM [activator, partial curve, poor fit]
O=C1CC(c2ccc(Cl)c([N+](=O)[O-])c2)c2ccc3ccccc3c2N1 (stereo not drawn)	inactive: -28.4%	–
CCOC(=O)c1cc(-c2ccc(C)cc2)n(CCC(=O)NCCCOC)c1C	inactive: -7.93%	–

Ordered by molar mass (ascending): some entries from above.
Compound	activity change, negative = inhibition	Potency
COc1ccc(-c2nc3ccccc3c(=O)[nH]2)cc1	–	inconclusive: 11.2 µM [activator, partial curve, poor fit]
Cc1cc(C)n2nc(SCC(=O)N3CCc4ccccc43)nc2n1	–	inconclusive: 23.1 µM [activator, single point]
CN1/C(=C/C(=O)c2ccc(Cl)cc2)Sc2cc3c(cc21)OCO3	–	inconclusive: 2.31 µM [activator, partial curve]
O=C1CC(c2ccc(Cl)c([N+](=O)[O-])c2)c2ccc3ccccc3c2N1 (stereo not drawn)	inactive: -28.4%	–
CC(C)Cc1ccc(CN2CCCC(NC(=O)CCN3CCCCC3=O)C2)cc1 (stereo not drawn)	inactive: 6.75%	–
CC(=O)NC(Cc1cccc(C)c1)C(=O)NC1CCN(C(=O)c2ccc([N+](=O)[O-])cc2)CC1 (stereo not drawn)	inactive: 6.75%	–

Later entries.

Compound	activity change, negative = inhibition	Potency
Cc1cccc(NC(=S)N2CCC(c3nc4ccccc4o3)CC2)c1	inactive: -2.14%	–
COc1cccc(C(=O)CSc2nnc(CNc3nc(-c4ccccc4)cs3)n2C)c1	–	inconclusive: 16.4 µM [inhibitor, partial curve, poor fit]
COC(=O)c1cc(Nc2cc(C)c3c(O)cccc3n2)cc(C(=O)OC)c1	–	inconclusive: 25.9 µM [inhibitor, partial curve, poor fit]
CCOC(=O)c1cnc(-n2nc(C)cc2C)nc1Nc1ccc(OC)cc1	–	inconclusive: 5.8 µM [inhibitor, single point]
C/C(Cc1ccccc1)=N\NC(=O)CNC(=O)/C=C\c1ccccc1	–	inconclusive: 16.4 µM [activator, partial curve, poor fit]
O=C1CCCC2=C1C(c1cccc(O)c1)C1=C(N2)c2ccccc2C1=O (stereo not drawn)	–	inconclusive: 29.1 µM [activator, single point]
Cc1ccc(-c2nc(N)s[n+]2-c2ccccc2)cc1	–	inconclusive: 13 µM [activator, partial curve]
Cc1ccccc1C(=O)Nc1ccnn1C1CCN(C(=O)c2ccoc2)CC1	inactive: 2.11%	–
Cc1occc1C(=O)NNC(=O)c1ccccc1F	–	inconclusive: 23.1 µM [activator, single point]
COc1ccc(C2CC(C(F)(F)F)n3ncc(C(=O)Nc4cccc(O)c4)c3N2)cc1OC (stereo not drawn)	–	active: 14.6 µM
Nc1nonc1NC(=O)CSc1ncccc1C(=O)O	inactive: 3.63%	–
O=C(/C=C/c1cc2ccccc2o1)c1ccccc1O	–	inconclusive: 18.3 µM [activator, partial curve]
CC(C)(C)c1cc2nc(N)nc(N)n2n1	inactive: 22.4%	–
Cc1ccc(-c2nc(SCC(N)=O)c(C#N)c3c2CCCC3)cc1	–	inconclusive: 29.1 µM [inhibitor, partial curve, poor fit]
CCOc1ccc(OCCn2c(S(=O)(=O)O)nc3c(N)ncnc32)cc1	inactive: -13.7%	–
Cc1nnc2c(N(C)S(=O)(=O)c3ccccc3)nc3ccccc3n12	–	inconclusive: 29.1 µM [activator, single point]
CC1=C(C(=O)N2CCOCC2)C(c2ccccc2F)C2=C(CCCC2=O)N1 (stereo not drawn)	–	inconclusive: 2.31 µM [activator, full curve, poor fit]
Cc1cccc(NC(=O)c2ccc(Cl)nc2)n1	–	inconclusive: 18.3 µM [activator, partial curve]
COc1ccc(C)cc1S(=O)(=O)N1CCCC(C(=O)N2CCN(c3ccccc3)CC2)C1 (stereo not drawn)	–	inconclusive: 23.1 µM [inhibitor, partial curve, poor fit]
Cc1cc(C)nc(NC2=NCC(=O)N2c2ccc(Cl)cc2)n1	–	inconclusive: 20.6 µM [inhibitor, partial curve, poor fit]
O=C(O)c1cccc(NC(=O)c2ccc3c(c2)C(=O)N(c2cccc([N+](=O)[O-])c2)C3=O)c1	inactive: 0%	–
COc1ccc(/C=c2\s/c(=C\C(=O)C(C)(C)C)[nH]c2=O)cc1O	–	inconclusive: 18.3 µM [inhibitor, single point]
c1cncc(-c2noc(-c3cccc4ccccc34)n2)c1	–	inconclusive: 10.3 µM [activator, partial curve]
O=C(/C=C/c1ccc(S(=O)(=O)N2CCOCC2)cc1)NC(=S)Nc1ccc(N2CCOCC2)cc1	inactive: -3.72%	–
Cc1cccc(C)c1N(CC(=O)NCc1ccccc1)C(=O)c1csnn1	inactive: 9.86%	–

Compound	activity change, negative = inhibition	Potency
O=C(NCCSCc1ccccc1)c1cc(S(=O)(=O)N2CCOCC2)ccc1F	–	inconclusive: 29.1 µM [inhibitor, single point]
CCc1nc(C)ccc1OCC(=O)N1CCc2c([nH]c3ccccc23)C1c1ccccn1 (stereo not drawn)	inactive: -1.92%	–
COc1cc(C)c(C(C)C)cc1S(=O)(=O)n1cnc(C)c1	inactive: 18.7%	–
O=C(CSc1cccc2cccnc12)Nc1cccc(S(=O)(=O)N2CCOCC2)c1	–	inconclusive: 25.9 µM [inhibitor, single point]
CN1CCN(c2ccccc2NC(=O)c2cccc([N+](=O)[O-])c2)CC1	inactive: -13.2%	–
COc1ccc(CNC(=O)Cn2cccc2C(=O)c2ccccc2C)cc1	–	inconclusive: 18.3 µM [activator, partial curve]
COCCNC(=O)CN(C(=O)Cn1nnc2ccccc21)c1ccccc1C	inactive: 1.04%	–
CCC(=O)NC(Nc1nc(C)cs1)(C(=O)OC)C(F)(F)F (stereo not drawn)	inactive: -2.19%	–
CS(=O)(=O)N(Cc1ccccc1)c1ccccc1C(=O)N1CCN(c2ccccc2)CC1	inactive: -0.758%	–
Cc1cccc(C)c1-n1c(C)cc(/C=C2\C(=O)NN(c3ccccc3)C2=O)c1C	–	inconclusive: 29.1 µM [activator, single point]
O=C(Cn1c(=O)oc2cc(S(=O)(=O)N3CCCC3)ccc21)NCc1ccccn1	–	inconclusive: 29.1 µM [inhibitor, single point]
O=C(NCc1cccc(F)c1)c1cccc2c1C(=O)c1ccc(N3CCC(Cc4ccccc4)CC3)cc1S2(=O)=O	inactive: 0.552%	–
CC(Sc1nccn1C)C(=O)Nc1ccccc1 (stereo not drawn)	inactive: 4.92%	–
Cc1cccc(-c2nc(Nc3ccc(O)cc3)c3ccccc3n2)c1	–	active: 20.6 µM
CC(Sc1nnc(COc2ccc(Cl)cc2)n1-c1ccccc1)C(=O)O (stereo not drawn)	–	inconclusive: 1.26 µM [activator, partial curve, poor fit]
Cc1cc(NNC(=O)c2cccc(C(F)(F)F)c2)nc2c1c(C)nn2C	–	inconclusive: 2.59 µM [inhibitor, full curve]
Cc1ccc(C(=O)N2CCN(c3ccc(NC(=O)c4cccnc4)cc3)CC2)cc1	–	inconclusive: 20.6 µM [inhibitor, single point]
CN(Cc1c(F)cccc1Cl)C(=O)CNC(=O)c1sc2ccccc2c1Cl	–	inconclusive: 12.6 µM [activator, single point]
COc1ccccc1C(=O)NNC(=O)c1cccc(F)c1	–	inconclusive: 3.26 µM [activator, full curve]
CCOc1ccc(OCc2ccc(C(=O)N3CCCC3)o2)cc1	inactive: 11.6%	–
Cc1cc(C(=O)Nc2ccccc2C(=O)O)c(C)o1	inactive: -5.56%	–
CC1(C)CC(=O)c2c(nc(SCC(=O)Nc3nsc(-c4ccccc4)n3)c(C#N)c2-c2ccccc2)C1	–	inconclusive: 4.61 µM [inhibitor, full curve, poor fit]
O=[N+]([O-])c1ccc(/C=N/Nc2nc(N3CCCCC3)nc(N3CCCCC3)n2)o1	–	active: 23.1 µM
